Values quoted from earlier work as cited in US20260365692A1, “COMPOSITIONS COMPRISING PROTEINS DISSOLVED IN FLUORINATED SOLVENTS, AND METHODS OF MAKING AND USING THE SAME” (priority 2022, published 2026).
At least one compound was matched to its structure with a doubt left.

System: tested proteins
Details: TFE in water; cited from earlier work

## OCC(F)(F)F [TFE, trifluoroethanol]
  total concentration required to induce protein structural transitions: 2 M
  volume required to induce protein structural transitions: ≥ 15 vol %
